Test system: removed rat heart
Assay: Removed rat heart (Langendorff heart)
Conditions: Langendorff heart mode
Source text: Rat (CD(SD)IGS, male, Charles River Japan Inc., 8 weeks old-10 weeks old, 300-450 g) was anesthetized by diethylether, opened the abdominal cavity, injected intravenously with heparin and then, exsanguinated to death. The heart was quickly removed by opening the chest cavity and the removed heart was immersed into cooled Krebs-Henseleit solution. The tissues were trimmed away under the cooling, aortic arches were inserted into the heart functional measuring equipment and fixed with sutures without leaking out. The rat heart function was measured using the heart functional measuring equipment (model IPH-W2, Labo-support). The equipment was used in the Langendorff Heart mode (non-working heart mode) and load was 68-70 mmHg. […] Catheter filled with physiological saline was inserted into the left ventricle, the catheter was connected to the piezotransducer (DX-100, Nihon Kohden) and the left ventricle pressure (LVP) was measured through strain compression amplifier (AP-601G, Nihon Kohden). Heart rate was calculated using LVP data with the heart rate measuring equipment (AT-601G, Nihon Kohden) and dLVP/dt was calculated with differential processor (EQ-641G, Nihon Kohden). Probes of electromagnetic flowmeter (model FF-020T, inside diameter 2 mm, Nihon Kohden) were set on the way to the passage of nutrient solution and the flow rate of nutrient solution (corresponding the blood flow rate of coronary artery) was measured using electromagnetic flowmeter (MFV-3100, Nihon Kohden). Administration of S1P and the compounds was performed by injection of dilution with nutrient solution into the passage of nutrient solution using infusion pump. The injection rate of drug solution was set as the flow rate of nutrient solution before starting of administration. […] Using the above mentioned model, effect of EDG-5 antagonist on heart function was examined. […] EDG-5 antagonist, the compound (1), the compound (2) and the compound (3) increased the flow rate of nutrient solution. In addition, they increased contractive force of heart muscle at the same time. […]

| SMILES | effect on heart rate |
| --- | --- |
| Cc1nn(C)c2nc(NNC(=O)Nc3cc(Cl)nc(Cl)c3)cc(C(C)C)c12 [compound (3), N-(2,6-dichloro-4-piridinyl)-2-(4-isopropyl-1,3-dimethyl-1H-pyrazolo[3,4-b]pyridin-6-yl)hydrazinecarboxamide] | little effect |
| O=C(Nc1cccc(C(F)(F)F)c1)N1CCC(O)(c2ccc(Br)cc2)CC1 [compound (2), 4-(4-bromophenyl)-4-hydroxy-N-(3-(trifluoromethyl)phenyl)-1-piperidinecarboxamide] | little effect |
| Cc1nn(C)c2nc(NNC(=O)Nc3c(Cl)cncc3Cl)cc(C(C)C)c12 [compound (1), N-(1H-1,3-dimethyl-4-isopropylpyrazolo[3,4-b]pyridin-6-yl)amino-N′-(3,5-dichloropyridin-4-yl)urea] | little effect |

From US8765783B2, “Pharmaceutical composition for treatment of disease due to vascular constriction or vasodilation” (Ono Pharmaceuticals Co., Ltd., priority 2002, dated 2014)
